# Data as given in PubChem BioAssay AID1259254 (NCATS, 2017).
# Assay: 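Finding genes that stop cells copying their DNA twice in one cycle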 (primary screen)
# System: human HCT116 colorectal cancer cells
# Reagent: single siRNA against human genes
# Time to read-out: 3 days
# Read-out: 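Nuclei stained with Hoechst and imaged; cell-cycle phase assigned by DNA content; G2 share scaled per plate, non-targeting siRNA 0%, GMNN siRNA 100%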
# Direction: G2 robust z-score and G2 cells, % of GMNN control: higher = more G2 cells, more excess DNA replication; raw share of cells in G2: higher = larger share of cells with G2 DNA content
# Call rule: 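Active siRNAs have a G2 robust z of 5 or more median absolute deviations over the median, which in these data means about 38% or higher of GMNN control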
# The deposit covers about 59,000 reagents; shown is a part drawn at random. About 1,550 of them (2.6%) were called active. 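G2 share is only a proxy for re-replication; each gene was hit by three separate siRNAs, and active genes were retested.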 Raw values are not corrected between plates. Reagents against one gene are numbered here. The record does not give: the amount of reagent.
gene symbol,siRNA no.,G2 robust z-score,"G2 cells, % of GMNN control",raw share of cells in G2 (%),outcome
ZKSCAN4 (zinc finger with KRAB and SCAN domains 4),1,-0.912,-3.45,4.41,inactive
ZKSCAN4 (zinc finger with KRAB and SCAN domains 4),2,0.00118,2.98,5.37,inactive
ZKSCAN4 (zinc finger with KRAB and SCAN domains 4),3,1.09,10.7,9.12,inactive
CD207 (CD207 molecule),1,1.58,14.1,9.22,inactive
CD207 (CD207 molecule),2,0.158,4.08,6.09,inactive
CD207 (CD207 molecule),3,2.9,23.3,10.6,inactive
WFDC12 (WAP four-disulfide core domain 12),1,-0.443,-0.147,4.42,inactive
WFDC12 (WAP four-disulfide core domain 12),2,0.383,5.66,8.3,inactive
WFDC12 (WAP four-disulfide core domain 12),3,-0.258,1.15,5.46,inactive
CAPZA1 (capping actin protein of muscle Z-line subunit alpha 1),1,0.349,5.42,6.01,inactive
CAPZA1 (capping actin protein of muscle Z-line subunit alpha 1),2,0.992,9.95,8.11,inactive
CAPZA1 (capping actin protein of muscle Z-line subunit alpha 1),3,-0.21,1.49,5.6,inactive
ARPP19 (cAMP regulated phosphoprotein 19),1,-1.16,-5.17,2.96,inactive
ARPP19 (cAMP regulated phosphoprotein 19),2,0.284,4.97,6.19,inactive
ARPP19 (cAMP regulated phosphoprotein 19),3,0.458,6.19,5.49,inactive
MIS12 (MIS12 kinetochore complex component),1,-0.984,-3.96,1.65,inactive
MIS12 (MIS12 kinetochore complex component),2,0.105,3.71,6.2,inactive
MIS12 (MIS12 kinetochore complex component),3,-0.452,-0.213,4.51,inactive
"DCPS (decapping enzyme, scavenger)",1,8.34,61.6,34.1,active
"DCPS (decapping enzyme, scavenger)",2,3.56,28,13.5,inactive
"DCPS (decapping enzyme, scavenger)",3,-1.55,-7.95,1.39,inactive
CXCL1 (C-X-C motif chemokine ligand 1),1,-0.742,-2.26,4.24,inactive
CXCL1 (C-X-C motif chemokine ligand 1),2,1.55,13.9,9.18,inactive
CXCL1 (C-X-C motif chemokine ligand 1),3,0.516,6.59,6.11,inactive
BACE2 (beta-secretase 2),1,1.11,10.8,9.33,inactive
BACE2 (beta-secretase 2),2,2.87,23.2,13.1,inactive
BACE2 (beta-secretase 2),3,-0.239,1.29,4.39,inactive
RNF43 (ring finger protein 43),1,1.73,15.2,9.03,inactive
RNF43 (ring finger protein 43),2,4.13,32.1,17.8,inactive
RNF43 (ring finger protein 43),3,2.94,23.7,11,inactive
RPL21P20 (ribosomal protein L21 pseudogene 20),1,3.29,26.1,14.8,inactive
RPL21P20 (ribosomal protein L21 pseudogene 20),2,1.2,11.4,9.52,inactive
RPL21P20 (ribosomal protein L21 pseudogene 20),3,3.27,26,12.7,inactive
EVI2B (ecotropic viral integration site 2B),1,-0.128,2.07,4.04,inactive
EVI2B (ecotropic viral integration site 2B),2,0.624,7.36,6,inactive
EVI2B (ecotropic viral integration site 2B),3,2.1,17.7,11,inactive

Records listed so far whose gene name starts with C or c:
gene symbol,siRNA no.,G2 robust z-score,"G2 cells, % of GMNN control",raw share of cells in G2 (%),outcome
CD207 (CD207 molecule),1,1.58,14.1,9.22,inactive
CD207 (CD207 molecule),2,0.158,4.08,6.09,inactive
CD207 (CD207 molecule),3,2.9,23.3,10.6,inactive
CAPZA1 (capping actin protein of muscle Z-line subunit alpha 1),1,0.349,5.42,6.01,inactive
CAPZA1 (capping actin protein of muscle Z-line subunit alpha 1),2,0.992,9.95,8.11,inactive
CAPZA1 (capping actin protein of muscle Z-line subunit alpha 1),3,-0.21,1.49,5.6,inactive
CXCL1 (C-X-C motif chemokine ligand 1),1,-0.742,-2.26,4.24,inactive
CXCL1 (C-X-C motif chemokine ligand 1),2,1.55,13.9,9.18,inactive
CXCL1 (C-X-C motif chemokine ligand 1),3,0.516,6.59,6.11,inactive

The results go on:
gene symbol,siRNA no.,G2 robust z-score,"G2 cells, % of GMNN control",raw share of cells in G2 (%),outcome
LIMD1-AS1 (LIMD1 antisense RNA 1),1,0.0523,3.34,4.91,inactive
LIMD1-AS1 (LIMD1 antisense RNA 1),2,-0.78,-2.52,2.37,inactive
LIMD1-AS1 (LIMD1 antisense RNA 1),3,3.2,25.5,10.6,inactive
RALBP1 (ralA binding protein 1),1,-1.43,-7.07,3.69,inactive
RALBP1 (ralA binding protein 1),2,0.381,5.65,8.15,inactive
RALBP1 (ralA binding protein 1),3,5.33,40.4,16.9,active
TPT1P8 (TPT1 pseudogene 8),1,1.7,14.9,8.45,inactive
TPT1P8 (TPT1 pseudogene 8),2,0.693,7.84,6.2,inactive
TPT1P8 (TPT1 pseudogene 8),3,-0.698,-1.95,3.53,inactive
TMEM88 (transmembrane protein 88),1,0.622,7.35,7.2,inactive
TMEM88 (transmembrane protein 88),2,-0.0374,2.7,3.85,inactive
TMEM88 (transmembrane protein 88),3,3.74,29.3,12.2,inactive
OR2B2 (olfactory receptor family 2 subfamily B member 2),1,-1.35,-6.5,1.94,inactive
OR2B2 (olfactory receptor family 2 subfamily B member 2),2,-0.0827,2.39,4.16,inactive
OR2B2 (olfactory receptor family 2 subfamily B member 2),3,0.244,4.68,3.83,inactive
IDH3B,1,2.95,23.7,13.7,inactive
IDH3B,2,-0.424,-0.0151,5.68,inactive
IDH3B,3,0.765,8.35,7.26,inactive
NCOA7 (nuclear receptor coactivator 7),1,-0.211,1.48,4.73,inactive
NCOA7 (nuclear receptor coactivator 7),2,2.35,19.5,9.3,inactive
NCOA7 (nuclear receptor coactivator 7),3,-0.59,-1.18,2.15,inactive
SMCHD1,1,-0.491,-0.484,4.23,inactive
SMCHD1,2,0.29,5.01,6.11,inactive
SMCHD1,3,-0.978,-3.91,1.93,inactive
"METTL21A (methyltransferase 21A, HSPA lysine)",1,1.65,14.6,8.72,inactive
"METTL21A (methyltransferase 21A, HSPA lysine)",2,-0.563,-0.994,2.61,inactive
"METTL21A (methyltransferase 21A, HSPA lysine)",3,-0.289,0.936,3.39,inactive
SKA2P1,1,0.456,6.18,6.29,inactive
SKA2P1,2,0.174,4.19,4.67,inactive
SKA2P1,3,-0.789,-2.58,2.1,inactive
INSR (insulin receptor),1,2.43,20,12.2,inactive
INSR (insulin receptor),2,-1.29,-6.08,3.36,inactive
INSR (insulin receptor),3,-0.00312,2.95,5.06,inactive
